Record: PubChem BioAssay AID504774 (Drosophila RNAi Screening Center, 2011)

Aim: 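Knock-downs that shift viability of MMS-exposed cells relative to untreated ones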 (primary screen)
Cell system: Drosophila Kc167 cells
Reagents: long dsRNA against Drosophila genes, about 0.25 µg dsRNA per well
Duration: about 6 days: 3 days knock-down, then 3 days with or without MMS
Treatment: methyl methanesulphonate 0.004% (w/v) for 3 days after knock-down
Measurement: 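Viability in wells given MMS, read as ATP luminescence, normalised by quantiles plate by plate and averaged across replicates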
Reading the numbers: mean viability with MMS: higher = more surviving cells after MMS
The deposit covers about 23,000 reagents; below is an unselected part of those that have a named target and a result. 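Values are quantile-normalised luminescence on an arbitrary scale; higher means more cells surviving MMS.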 The numbers tell different reagents against one gene apart. A plus sign joins genes that one reagent is predicted to hit. Not all columns of the deposit are shown.

| Gene | reagent no. | mean viability with MMS |
| --- | --- | --- |
| CG31274 + MESK4 | 1 | 3.45e6 |
| RunxA (Runt related A) | 1 | 3.54e6 |
| RunxA (Runt related A) | 2 | 3.00e6 |
| RunxA (Runt related A) | 3 | 3.67e6 |
| RunxA (Runt related A) | 4 | 3.74e6 |
| parvin | 1 | 3.62e6 |
| CG1271 | 1 | 3.50e6 |
| Cht7 + tRNA:Cys-GCA-1-4 + tRNA:Lys-CTT-1-13 | 1 | 3.37e6 |
| CG31800 | 1 | 3.50e6 |
| glu (gluon) | 1 | 3.40e6 |
| CG4594 | 1 | 3.69e6 |
| CG8738 | 1 | 3.49e6 |
| botv | 1 | 3.44e6 |
| Gbs-76A (Glycogen binding subunit 76A) | 1 | 3.47e6 |
| Ire1 (Inositol-requiring enzyme-1) | 1 | 3.25e6 |
| osy (oskyddad) | 1 | 3.34e6 |
| osy (oskyddad) | 2 | 3.36e6 |
| osy (oskyddad) | 3 | 3.45e6 |
| NijA (Ninjurin A) | 1 | 3.40e6 |
| CG9747 | 1 | 3.47e6 |
| fng (fringe) | 1 | 3.61e6 |
| fng (fringe) | 2 | 3.49e6 |
| fng (fringe) | 3 | 3.55e6 |
| NTPase | 1 | 3.72e6 |
| CG13884 | 1 | 3.41e6 |
| Dlg5 (Discs large 5) | 1 | 3.41e6 |
| CG9702 | 1 | 3.67e6 |
| CG34375 | 1 | 3.68e6 |
| CG34375 | 2 | 3.61e6 |
| CG17782 | 1 | 3.63e6 |
| CG17782 | 2 | 3.80e6 |
| Cyp4aa1 (Cytochrome P450 4aa1) | 1 | 3.45e6 |
| HIP + HIP-R | 1 | 3.62e6 |
| CG31546 | 1 | 3.65e6 |
| ZAP3 | 1 | 3.44e6 |
| ZAP3 | 2 | 3.70e6 |
| ZAP3 | 3 | 3.43e6 |
| KrT95D (Krueppel target at 95D) | 1 | 3.39e6 |
| fend (forked end) | 1 | 3.47e6 |
| fend (forked end) | 2 | 3.49e6 |
| CG40191 | 1 | 3.45e6 |
| SdhD (Succinate dehydrogenase, subunit D) | 1 | 3.53e6 |
| CG12491 + CG34105 | 1 | 3.62e6 |
| CG12491 + CG34105 | 2 | 3.45e6 |
| CG12974 | 1 | 3.46e6 |
| Tim17b1 | 1 | 3.62e6 |

A run of entries of the results above:
| Gene | reagent no. | mean viability with MMS |
| --- | --- | --- |
| CG17782 | 2 | 3.80e6 |
| Cyp4aa1 (Cytochrome P450 4aa1) | 1 | 3.45e6 |
| HIP + HIP-R | 1 | 3.62e6 |
| CG31546 | 1 | 3.65e6 |
| ZAP3 | 1 | 3.44e6 |
| ZAP3 | 2 | 3.70e6 |
| ZAP3 | 3 | 3.43e6 |
